Laboratory results: PubChem BioAssay AID1259308 (NCATS, 2017)
Aim: 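Genes whose loss raises luciferase production in HEK293 cells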 (primary screen). Cells: human HEK293 embryonic kidney cells stably expressing firefly luciferase (HEK-CMV-Luc2-Hygro). Reagent: single siRNA against human genes, 0.8 pmol siRNA per well. Time to read-out: 72 h. Detection: 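Reporter luminescence and viable-cell signal on separate replicate plates, given as percent of non-targeting control and median/MAD z-scores, plus per-cell luciferase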. Reading the numbers: total luciferase, z-score: higher = more reporter protein produced. Hit rule: 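Active when the median/MAD z-score for overall luciferase is greater than 3; a gene was taken forward for validation with new siRNAs if at least two of its three siRNAs passed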. Meaning of the calls: active = raised luciferase; inactive = no rise.
In all, the deposit lists about 59,000 reagents; shown is a part drawn at random. About 1,510 of them (2.6%) count as active. 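Calls use total luciferase alone and ignore viability, so some active siRNAs may act by altering cell number.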 Unmarked entries are inactive. Reagents against one gene are numbered here. Not all columns of the deposit are shown.

Knock-down of CNPY4 (canopy FGF signaling regulator 4) #1 resulted in: total luciferase, z-score -0.0675.
After knock-down of CNPY4 (canopy FGF signaling regulator 4) #2, the record shows total luciferase, z-score 0.487.
Depletion of CNPY4 (canopy FGF signaling regulator 4) #3 gave: total luciferase, z-score -0.464.
ZBTB17 (zinc finger and BTB domain containing 17) #1 scored total luciferase, z-score -0.452.
Knock-down of ZBTB17 (zinc finger and BTB domain containing 17) #2 came out at: total luciferase, z-score -1.12.
With knock-down of ZBTB17 (zinc finger and BTB domain containing 17) #3 the results were total luciferase, z-score 0.281.
With knock-down of OR5J2 (olfactory receptor family 5 subfamily J member 2) #1, the record shows total luciferase, z-score 0.282.
With knock-down of OR5J2 (olfactory receptor family 5 subfamily J member 2) #2 the results were total luciferase, z-score 0.168.
For OR5J2 (olfactory receptor family 5 subfamily J member 2) #3, the values are total luciferase, z-score 3.24 (active).
DEFA6 (defensin alpha 6) #1 gave total luciferase, z-score 0.52.
With knock-down of DEFA6 (defensin alpha 6) #2, the screen gave total luciferase, z-score 0.543.
After knock-down of DEFA6 (defensin alpha 6) #3 the results were total luciferase, z-score 0.388.

Records listed so far whose target name begins with C or c:
CNPY4 (canopy FGF signaling regulator 4) #1 | total luciferase, z-score = -0.0675
CNPY4 (canopy FGF signaling regulator 4) #2 | total luciferase, z-score = 0.487
CNPY4 (canopy FGF signaling regulator 4) #3 | total luciferase, z-score = -0.464
